{"sequences": {"note": "Chains of the proteins cited; added tags and fusions are not shown. Residues count along the entry.", "UniProt P08069, 31-1367": "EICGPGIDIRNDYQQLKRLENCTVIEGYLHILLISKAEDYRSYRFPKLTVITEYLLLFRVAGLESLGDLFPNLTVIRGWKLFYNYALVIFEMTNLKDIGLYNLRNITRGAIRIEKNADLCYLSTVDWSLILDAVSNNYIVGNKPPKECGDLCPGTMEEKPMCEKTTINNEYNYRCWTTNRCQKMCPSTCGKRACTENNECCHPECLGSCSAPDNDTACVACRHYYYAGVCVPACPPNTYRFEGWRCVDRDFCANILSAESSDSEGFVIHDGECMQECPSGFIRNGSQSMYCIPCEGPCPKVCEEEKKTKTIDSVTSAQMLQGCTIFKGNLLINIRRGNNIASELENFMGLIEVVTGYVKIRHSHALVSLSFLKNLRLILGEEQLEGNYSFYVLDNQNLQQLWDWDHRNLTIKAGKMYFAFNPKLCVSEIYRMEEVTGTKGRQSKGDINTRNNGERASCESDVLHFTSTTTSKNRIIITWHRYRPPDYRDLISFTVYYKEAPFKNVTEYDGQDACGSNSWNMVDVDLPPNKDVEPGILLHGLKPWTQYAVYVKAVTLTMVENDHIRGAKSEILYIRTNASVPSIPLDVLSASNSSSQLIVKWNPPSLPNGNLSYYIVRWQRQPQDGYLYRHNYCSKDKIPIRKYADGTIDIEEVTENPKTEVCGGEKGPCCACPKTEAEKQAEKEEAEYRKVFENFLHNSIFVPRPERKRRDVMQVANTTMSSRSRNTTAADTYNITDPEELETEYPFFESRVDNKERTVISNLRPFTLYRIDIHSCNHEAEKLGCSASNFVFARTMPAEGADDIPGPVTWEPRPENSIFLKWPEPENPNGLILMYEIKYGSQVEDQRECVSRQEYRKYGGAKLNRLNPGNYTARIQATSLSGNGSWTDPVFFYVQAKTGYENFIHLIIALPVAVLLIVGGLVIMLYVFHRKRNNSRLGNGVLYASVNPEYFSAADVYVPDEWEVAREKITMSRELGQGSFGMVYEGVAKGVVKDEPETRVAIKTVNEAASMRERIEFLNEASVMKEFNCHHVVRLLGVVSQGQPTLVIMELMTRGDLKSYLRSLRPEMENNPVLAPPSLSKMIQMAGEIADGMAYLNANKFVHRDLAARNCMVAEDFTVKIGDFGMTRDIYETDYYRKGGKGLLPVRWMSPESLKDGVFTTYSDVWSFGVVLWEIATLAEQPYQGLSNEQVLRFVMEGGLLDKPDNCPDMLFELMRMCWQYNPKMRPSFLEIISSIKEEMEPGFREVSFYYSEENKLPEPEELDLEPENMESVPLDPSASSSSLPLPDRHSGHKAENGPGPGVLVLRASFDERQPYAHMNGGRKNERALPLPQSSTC"}, "source": "patent US20250145599A1", "about": "“CERTAIN CHEMICAL ENTITIES, COMPOSITIONS, AND METHODS” (Retune Pharma Inc., priority 2022, published 2025)", "key": {"IGF-1R": {"biological_target": "IGF-1R (Homo sapiens, UniProt P08069)", "experiment": "IGF-1R biochemical assay (ADP-Glo)", "settings": "read-out: IGF1R IC50", "experimental": "The inhibitory activity against IGF-1R was measured using ADP-Glo assay. The percent (%) inhibition at each concentration of compound is calculated based on and relative to the luminescence signal in the Max and Min control wells contained within each assay plate. The Max control wells contain enzyme and substrate as 0% inhibition, and the Min control wells only contain substrate without enzyme as 100% inhibition. The concentrations and % inhibition values for tested compounds are plotted and the concentration of compound required for 50% inhibition (IC50) is determined with a four-parameter logistic dose response equation.\nTable 3 provides IC50 data of representative compounds against IGF-1R using ADP-Glo assay. The IC50 data are designated within the following ranges: A: ≤0.10 μM, B: >0.10 μM to ≤1 μM, C: >1 μM to ≤20 μM"}, "Ba/F3-TEL-IGF-1R cells": {"test_system": "Ba/F3-TEL-IGF-1R cells", "experiment": "CellTiter-Glo luminescent cell viability assay", "format": "cell-based", "settings": "cellular IC50, Ba/F3-TEL-IGF-1R cells", "experimental": "The CellTiter-Glo luminescent cell viability assay was used to determine the inhibitory activity of the compounds against IGF-1R in Ba/F3-TEL-IGF-1R cells. […] The IC50 data are designated within the following ranges: A: ≤1 μM, B: >1 μM to ≤10 μM, C: >10 μM to ≤20 μM"}}, "note": "Some of these results come from one statement about several compounds together. For at least one compound, name, drawing or mass did not settle the structure.", "data": [{"compound": "C[C@]1(O)C[C@@H](n2nc(-c3ccc4cc(F)c(-c5ccccc5F)nc4c3F)c(C(N)=O)c2N)C1", "note": "[Example C058, 5-amino-3-(3,8-difluoro-2-(2-fluorophenyl)quinolin-7-yl)-1-((1s,3s)-3-hydroxy-3-methylcyclobutyl)-1H-pyrazole-4-carboxamide]", "values": [{"measurement": "IC50", "setting": "IGF-1R", "result": "100 to 1000", "unit": "nM"}]}, {"compound": "COc1c(F)c(-c2ccccc2)nc2cc(-c3nn([C@H]4C[C@@](C)(O)C4)c(N)c3C(N)=O)ccc12", "note": "[Example C060, 5-amino-3-(3-fluoro-4-methoxy-2-phenylquinolin-7-yl)-1-((1s,3s)-3-hydroxy-3-methylcyclobutyl)-1H-pyrazole-4-carboxamide]", "values": [{"measurement": "IC50", "setting": "IGF-1R", "result": "≤ 100", "unit": "nM"}, {"measurement": "IC50", "setting": "Ba/F3-TEL-IGF-1R cells", "result": "≤ 1000", "unit": "nM"}]}]}
